# Experimental data as given in PubChem BioAssay AID1347076 (National Center for Advancing Translational Sciences (NCATS), 2019).
# In all, about 400,000 compounds went through this assay and about 13,000 (3.2%) were called active. The shares of active, inactive and inconclusive entries below differ from those in the screen. The call rests on the fitted dose curve; in most records, active means well fitted cell-killing curve with a large enough effect; inconclusive means small, poorly fitted or top-dose-only effect, or effect the other way; inactive means flat fitted curve, though single readings scatter. A potency beside an inconclusive call is a rough fit, not a confirmed value.
# Test: qHTS assay for MDR1-selective chemotherapeutics: Primary screen using the drug-selected MDR subline cells KB-V1; further: nearly all actives have a fitted effect of over 60% in size
# Conditions: KB-V1 MDR cells viability, CellTiter-Glo, 72 h; activity change, negative = cytotoxicity: at 46.1 µM (top of the series)
# Method in brief: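 In this primary screen, KB-V1 cells overexpressing P-gp are incubated with library compounds (lowest to highest concentration) for 72 h at 37 degrees C before a luminescent ATP viability read.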
# On the % scale 0 is the no-effect control and ±100 the full control effect; potency means the concentration at half of the fitted maximal effect.
SMILES,Potency,"activity change, negative = cytotoxicity"
O=C(O)CC1S/C(=N\N=C/c2ccccc2)N(c2ccc(O)cc2)C1=O (stereo not drawn),"inconclusive: 29.1 µM [rising, partial curve, poor fit]",
COc1ccc(C2=CSC3=NCCN23)cc1Br,,inactive: -15.2%
CCOc1ccc(CN2CCN(Cc3nc(C(C)C)cs3)CC2CCO)cc1 (stereo not drawn),"inconclusive: 23.1 µM [cytotoxic, single point]",
CCN(CC(=O)Nc1ccccc1OC)C(=O)CC1CC2CCC1C2 (stereo not drawn),active: 16.4 µM,
Cc1onc(-c2ccccc2)c1C(=O)Nc1nnc(COc2ccc(Cl)cc2)s1,,inconclusive: 31.7%
COc1cccc(CNC(=O)CSCC(=O)Nc2ccc(C)cc2)c1,"inconclusive: 0.206 µM [rising, full curve]",
O=C(CSc1ccsc1[N+](=O)[O-])N1CCN(c2ccc(Cl)cc2)CC1,,inactive: -23%
O=C(NCC1CCCCC1)c1cc([N+](=O)[O-])ccc1N1CCOCC1,,inactive: -25.2%
Cc1ccc(NC(=O)C2SC(=Nc3ccccc3)C(C(=O)Nc3ccc(Cl)cc3)=C2N)cc1 (stereo not drawn),,inactive: -3.11%
Cc1ccc(CSc2c(C)cnc3c2c(=O)n(C)c(=O)n3C)cc1,"inconclusive: 29.1 µM [cytotoxic, single point]",
CC1C(=O)Nc2ccc(S(=O)(=O)N3CCCCCC3)cc21 (stereo not drawn),"inconclusive: 29.1 µM [rising, single point]",
CC(C)c1ccc(/C=C2\SC(=O)N(CC(=O)NCCCn3ccnc3)C2=O)cc1,"inconclusive: 29.1 µM [rising, single point]",
CCc1nc2ccc(C(=O)N3CCN(c4ccccc4F)CC3)cc2nc1CC,inactive,
CC(=O)c1ccc(S(=O)(=O)N2CCN(CC(=O)NC(=O)NC3CCCCC3)CC2)cc1,,inactive: -3.81%
O=C1OC(c2ccccc2)=C/C1=C/N1CCCCC1,"inconclusive: 23.1 µM [cytotoxic, partial curve]",
Cc1cc(N/N=C/c2ccc(O)cc2O)nc(-c2ccccc2O)n1,"inconclusive: 6.51 µM [cytotoxic, full curve]",
CCOC(=O)C1=C(CN2CCN(c3ccc(Cl)cc3)CC2)NC(=O)NC1c1ccc(OC)cc1 (stereo not drawn),"inconclusive: 29.1 µM [cytotoxic, single point]",
CC12CCC(=O)CC1CCC1C2CCC2(C)C1CCC2(O)C(=O)CO (stereo not drawn),,inactive: -1.47%
COc1ccc(N2CCN(C(=O)CSc3nnc4c(C)cc5cc(C)ccc5n34)CC2)cc1,active: 5.8 µM,
CC(C)CC(N)c1csc(NC(=O)Nc2ccccc2-c2ccccc2)n1 (stereo not drawn),"inconclusive: 29.1 µM [cytotoxic, single point]",
COc1ccc2[nH]c(C(=O)N/N=C/c3ccccc3OC)cc2c1,,inactive: -19.9%
O=C(CCn1c(=O)oc2ccccc21)N1CCN(C(c2ccccc2)c2ccccc2)CC1,"inconclusive: 29.1 µM [cytotoxic, single point]",
Cc1ccccc1NC(=O)Cc1nc(COC(=O)COc2ccc(C(C)(C)C)cc2)cs1,"inconclusive: 29.1 µM [rising, single point]",
OC(CCc1cccc(Cl)c1)c1cccs1 (stereo not drawn),"inconclusive: 23.1 µM [rising, partial curve, poor fit]",

# An excerpt of these results, tab-delimited.
SMILES	Potency	activity change, negative = cytotoxicity
COc1cccc(CNC(=O)CSCC(=O)Nc2ccc(C)cc2)c1	inconclusive: 0.206 µM [rising, full curve]	
O=C(CSc1ccsc1[N+](=O)[O-])N1CCN(c2ccc(Cl)cc2)CC1		inactive: -23%
O=C(NCC1CCCCC1)c1cc([N+](=O)[O-])ccc1N1CCOCC1		inactive: -25.2%

# (further entries)

SMILES,Potency,"activity change, negative = cytotoxicity"
CC1CCc2c(nc3sc4c(c3c2N)CCCC4)C1 (stereo not drawn),"inconclusive: 20.6 µM [cytotoxic, partial curve, poor fit]",
O=C(NC1CCC1)C1CCC(=O)N(Cc2ccc(Cl)cc2)C1 (stereo not drawn),,inactive: -11.9%
Cn1c(=O)c2c(nc(SCCN3CCOCC3)n2C)n(C)c1=O,,inactive: 6.84%
COc1ccc(-c2c(C#N)cnc(C)c2C)c(O)c1OC,,inactive: 12%
COc1ccc2ccc3c(c2c1)N=CC1(O3)N(C)c2ccccc2C1(C)C (stereo not drawn),"inconclusive: 16.4 µM [cytotoxic, partial curve]",
COc1ccc(-c2cc3nc(C)c(CCC(=O)NCc4ccco4)c(C)n3n2)c(OC)c1,active: 4.61 µM,
Cc1nc(N)nc(Nc2ccc(Cl)cc2)c1Br,active: 20.6 µM,
Nc1ncccc1OCc1ccc(Br)cc1,"inconclusive: 16.4 µM [cytotoxic, partial curve]",
CN(C)c1nc(Nc2ccc(Cl)cc2)nc(OCC#N)n1,"inconclusive: 20 µM [cytotoxic, partial curve, poor fit]",
CCC1CC(C)(C(=O)Nc2ccc(S(N)(=O)=O)cc2)OC1=O (stereo not drawn),,inactive: 13.4%
CC(C)[C@@H](CO)NC(=O)c1ccc2c3n(nc2c1)-c1ccccc1CO3,,inactive: -26.5%
COc1ccc(C(=O)CSc2nnc(COc3ccccc3)n2Cc2ccco2)cc1,"inconclusive: 16.4 µM [cytotoxic, partial curve]",
COc1cc(NC(=O)c2ccc(COc3ccccc3Br)o2)cc(OC)c1OC,active: 7.31 µM,
CCCc1ccc(C2C3=C(CC(C)(C)CC3=O)NC3=C2C(=O)c2ccccc23)cc1 (stereo not drawn),active: 20.6 µM,
Cc1ccccc1CS(=O)(=O)CCC(=O)O,"inconclusive: 32.6 µM [rising, single point]",
CC(=O)N1CCN(S(=O)(=O)c2cccc(C(=O)OCN3C(=O)c4ccccc4C3=O)c2)CC1,,inactive: 35.2%
CN1CCN(c2nc(-c3ccccn3)nc3ccccc23)CC1,active: 23.1 µM,
O=C(Nc1c(F)c(F)c(F)c(F)c1F)NC1CCCCC1,active: 16.4 µM,
Cc1oc(-c2cccc(Cl)c2)nc1CN1CCC(C(=O)NC(C)C)CC1,,inactive: 10%
CN(C)c1ccc(/C=C/c2nnnn2-c2ccccc2)cc1,"inconclusive: 18.4 µM [cytotoxic, single point]",
Cc1cc(C)c(S(=O)(=O)Nc2ccc3oc(C)c(C(=O)OC(C)C)c3c2)cc1C,"inconclusive: 5.17 µM [cytotoxic, full curve, poor fit]",
O=C(COc1ccc(Br)cc1Br)Nc1ccc(S(=O)(=O)Nc2ncccn2)cc1,"inconclusive: 23.1 µM [cytotoxic, partial curve, poor fit]",
Cc1ccc(OCCC(=O)OCC(=O)N2c3ccccc3NC(=O)C2(C)C)cc1,,inactive: 6.74%
O=C(NCCc1c[nH]c2ccccc12)C(=O)NCC1OCCN1S(=O)(=O)c1cc(F)ccc1F (stereo not drawn),"inconclusive: 23.1 µM [cytotoxic, single point]",
